No constants are given. Whether binding was seen depends on the method and setting. Binding seen in cells or lysates may run through a third protein.

The chains behind the UniProt entries cited, without tags or fusion partners. Where a name states a change or a piece, a line headed by the entry shows the natural chain unless it says otherwise.
UniProt Q07157, whole entry: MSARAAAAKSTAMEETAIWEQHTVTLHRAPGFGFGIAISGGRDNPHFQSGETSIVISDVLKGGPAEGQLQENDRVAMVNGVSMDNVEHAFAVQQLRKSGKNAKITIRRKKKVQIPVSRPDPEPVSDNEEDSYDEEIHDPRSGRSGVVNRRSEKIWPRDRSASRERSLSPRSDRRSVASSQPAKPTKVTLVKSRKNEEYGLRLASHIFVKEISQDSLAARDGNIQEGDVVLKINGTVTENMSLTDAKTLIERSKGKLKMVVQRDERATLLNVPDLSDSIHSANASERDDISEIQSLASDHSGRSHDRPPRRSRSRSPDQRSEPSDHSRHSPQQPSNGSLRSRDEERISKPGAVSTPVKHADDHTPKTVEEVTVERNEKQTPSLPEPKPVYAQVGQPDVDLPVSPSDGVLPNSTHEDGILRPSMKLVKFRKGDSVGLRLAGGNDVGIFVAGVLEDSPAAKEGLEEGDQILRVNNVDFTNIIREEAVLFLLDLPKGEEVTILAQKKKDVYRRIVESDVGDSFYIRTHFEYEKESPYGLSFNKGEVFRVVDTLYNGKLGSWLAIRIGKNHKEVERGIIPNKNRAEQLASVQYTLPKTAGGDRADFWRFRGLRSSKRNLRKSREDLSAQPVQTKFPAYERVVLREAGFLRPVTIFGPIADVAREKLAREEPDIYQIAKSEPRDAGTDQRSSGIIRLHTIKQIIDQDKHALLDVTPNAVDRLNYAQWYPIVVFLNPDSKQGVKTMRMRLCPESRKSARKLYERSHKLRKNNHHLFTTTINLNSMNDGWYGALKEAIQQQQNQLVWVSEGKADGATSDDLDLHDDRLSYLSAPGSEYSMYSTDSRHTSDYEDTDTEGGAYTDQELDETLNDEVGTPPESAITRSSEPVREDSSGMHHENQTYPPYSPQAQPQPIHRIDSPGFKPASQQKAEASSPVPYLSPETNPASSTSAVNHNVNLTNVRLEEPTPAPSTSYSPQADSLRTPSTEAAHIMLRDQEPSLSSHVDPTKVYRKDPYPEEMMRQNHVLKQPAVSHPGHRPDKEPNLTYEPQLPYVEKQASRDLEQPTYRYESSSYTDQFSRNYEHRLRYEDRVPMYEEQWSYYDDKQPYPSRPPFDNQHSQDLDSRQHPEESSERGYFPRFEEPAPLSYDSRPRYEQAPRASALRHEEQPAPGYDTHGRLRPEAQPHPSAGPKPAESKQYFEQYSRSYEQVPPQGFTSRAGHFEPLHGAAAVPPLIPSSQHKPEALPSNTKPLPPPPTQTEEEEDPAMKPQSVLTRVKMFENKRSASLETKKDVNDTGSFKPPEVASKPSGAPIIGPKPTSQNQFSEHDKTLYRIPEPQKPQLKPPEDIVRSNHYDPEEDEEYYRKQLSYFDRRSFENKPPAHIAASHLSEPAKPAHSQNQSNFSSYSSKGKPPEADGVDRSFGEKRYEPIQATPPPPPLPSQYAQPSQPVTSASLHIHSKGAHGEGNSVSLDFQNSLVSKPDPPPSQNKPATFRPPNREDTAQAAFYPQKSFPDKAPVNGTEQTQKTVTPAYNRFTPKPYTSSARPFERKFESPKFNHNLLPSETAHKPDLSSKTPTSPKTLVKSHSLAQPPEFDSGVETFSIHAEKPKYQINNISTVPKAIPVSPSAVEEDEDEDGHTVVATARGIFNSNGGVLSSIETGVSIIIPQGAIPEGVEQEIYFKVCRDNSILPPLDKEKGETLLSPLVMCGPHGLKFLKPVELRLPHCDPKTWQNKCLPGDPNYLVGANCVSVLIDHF

Experimental findings from article PMC12255046 are described below.

This assay addresses GFP-tagged ZO-1 full-length protein (UniProt Q07157). Put plainly: pull-down; only the target purified.

Consider “SARS-CoV-2 Envelope (E) protein with mutated PBM (quadruplex of glycine instead of the PBM), produce (from UniProt P0DTC4 1-75)”, for which the binding result is recorded as “no binding”.
